PubChem BioAssay AID504774 | Drosophila RNAi Screening Center, 2011
The deposit covers about 23,000 reagents; shown is an unselected part of those that have a named target and a result. 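Values are quantile-normalised luminescence on an arbitrary scale; higher means more cells surviving MMS.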 The numbers tell different reagents against one gene apart.

Aim: 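Genes required for cells to withstand methyl methanesulphonate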 (primary screen)
Cells: Drosophila Kc167 cells
Reagent: long dsRNA against Drosophila genes, about 0.25 µg dsRNA per well
Timing: about 6 days: 3 days knock-down, then 3 days with or without MMS
Challenge: methyl methanesulphonate 0.004% (w/v) for 3 days after knock-down
Detection: 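ATP-dependent luminescence as a measure of live cells in MMS-exposed wells, quantile normalised within each plate, with replicate values also given as a mean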
Reading the numbers: mean viability with MMS and viability with MMS: higher = more surviving cells after MMS

gene | reagent no. | mean viability with MMS | viability with MMS, replicate 1 | viability with MMS, replicate 2
CG18545 | 1 | 3.68e6 | 4.10e6 | 4.15e6
CG7675 | 1 | 3.69e6 | 4.19e6 | 4.13e6
CG12655 | 1 | 3.65e6 | 4.09e6 | 4.14e6
bcd | 1 | 3.76e6 | 4.23e6 | 4.30e6
CG34290 | 1 | 3.49e6 | 3.83e6 | 4.09e6
CG30076 | 1 | 3.42e6 | 3.90e6 | 3.95e6
ppk12 | 1 | 3.47e6 | 3.91e6 | 3.95e6
Tmx3 | 1 | 3.64e6 | 4.26e6 | 3.98e6
ac | 1 | 2.91e6 | 3.63e6 | 3.68e6
Fancd2 | 1 | 3.58e6 | 4.13e6 | 3.98e6
Fancd2 | 2 | 3.49e6 | 3.97e6 | 3.98e6
Atg4b | 1 | 3.49e6 | 3.93e6 | 3.95e6
CG32264 | 1 | 3.10e6 | 3.56e6 | 3.66e6
CG32264 | 2 | 3.65e6 | 4.04e6 | 4.18e6
CG32264 | 3 | 3.67e6 | 4.15e6 | 4.19e6
CG32264 | 4 | 3.60e6 | 3.94e6 | 3.78e6
CG32264 | 5 | 3.27e6 | 3.69e6 | 3.75e6
sun | 1 | 3.46e6 | 3.90e6 | 3.93e6
CG12158 | 1 | 3.22e6 | 3.76e6 | 3.88e6
CG7745 | 1 | 3.00e6 | 3.54e6 | 3.60e6
CG7745 | 2 | 3.65e6 | 4.29e6 | 3.99e6
GstD8 | 1 | 3.68e6 | 4.09e6 | 4.15e6
fs(1)K10 | 1 | 3.45e6 | 3.99e6 | 3.85e6
Slu7 | 1 | 3.23e6 | 3.64e6 | 3.61e6
Fife | 1 | 3.22e6 | 3.68e6 | 3.77e6
CG3457 | 1 | 3.70e6 | 4.24e6 | 4.12e6
OdsH | 1 | 3.54e6 | 3.93e6 | 4.11e6
CG6462 | 1 | 3.64e6 | 4.22e6 | 4.06e6
slp2 | 1 | 3.49e6 | 3.98e6 | 3.93e6
Obp99d | 1 | 3.62e6 | 4.08e6 | 4.12e6
CG7294 | 1 | 3.52e6 | 4.07e6 | 3.93e6
Nuak | 1 | 3.55e6 | 4.02e6 | 4.05e6
Nuak | 2 | 3.61e6 | 3.98e6 | 4.23e6
Nuak | 3 | 3.59e6 | 3.98e6 | 4.14e6
jet | 1 | 3.40e6 | 3.91e6 | 3.67e6
maf-S | 1 | 3.30e6 | 3.71e6 | 3.80e6
CG12194 | 1 | 3.56e6 | 4.01e6 | 4.04e6
not | 1 | 3.50e6 | 3.96e6 | 3.95e6
CG4955 | 1 | 3.67e6 | 4.26e6 | 4.11e6
Cpr64Ad | 1 | 3.47e6 | 3.84e6 | 4.03e6
CG13058 | 1 | 3.54e6 | 4.01e6 | 4.01e6
CG9663 | 1 | 3.64e6 | 4.12e6 | 4.16e6
CG17652 | 1 | 3.38e6 | 3.77e6 | 3.82e6
wuc | 1 | 3.61e6 | 3.91e6 | 4.42e6
Amacr | 1 | 3.40e6 | 3.72e6 | 3.89e6
CG5515 | 1 | 3.48e6 | 3.96e6 | 3.94e6
tkv | 1 | 3.40e6 | 4.08e6 | 3.68e6
tkv | 2 | 3.55e6 | 4.03e6 | 4.01e6
tkv | 3 | 3.55e6 | 4.04e6 | 3.99e6
CG13747 | 1 | 3.59e6 | 4.12e6 | 3.98e6
chk | 1 | 3.50e6 | 3.86e6 | 3.89e6
Or42a | 1 | 3.49e6 | 3.88e6 | 4.00e6
MED18 | 1 | 3.54e6 | 3.98e6 | 4.05e6
su(sable) | 1 | 3.57e6 | 4.32e6 | 3.78e6
CG4546 | 1 | 3.47e6 | 3.88e6 | 3.98e6
nan | 1 | 3.68e6 | 4.16e6 | 4.13e6
chico | 1 | 3.59e6 | 4.22e6 | 3.93e6
ssh | 1 | 3.43e6 | 3.88e6 | 3.87e6
yuri | 1 | 3.44e6 | 3.88e6 | 3.91e6
yuri | 2 | 3.40e6 | 3.82e6 | 3.84e6
yuri | 3 | 3.57e6 | 3.94e6 | 4.15e6
yuri | 4 | 3.61e6 | 4.09e6 | 4.13e6
CG32801 | 1 | 3.60e6 | 4.16e6 | 4.01e6
CG9018 | 1 | 3.50e6 | 3.97e6 | 3.97e6
CG43861 | 1 | 3.43e6 | 3.86e6 | 3.88e6
rpr | 1 | 3.61e6 | 4.11e6 | 4.05e6
Hs6st | 1 | 3.66e6 | 4.07e6 | 4.23e6
Hs6st | 2 | 3.56e6 | 4.04e6 | 4.03e6
Hs6st | 3 | 3.57e6 | 4.06e6 | 4.09e6
Hs6st | 4 | 3.84e6 | 4.26e6 | 4.38e6

4 successive reagents from above, for reference:
gene | reagent no. | mean viability with MMS | viability with MMS, replicate 1 | viability with MMS, replicate 2
not | 1 | 3.50e6 | 3.96e6 | 3.95e6
CG4955 | 1 | 3.67e6 | 4.26e6 | 4.11e6
Cpr64Ad | 1 | 3.47e6 | 3.84e6 | 4.03e6
CG13058 | 1 | 3.54e6 | 4.01e6 | 4.01e6
